Measured values published in PMC8207686.
Like-named read-outs stand apart in the source and are kept apart here. These are yes or no findings as the source states them, for the method shown. For some assays here: Binding seen in cells or lysates may run through a third protein. Some results given as binding are weak or reduced against the parent protein; the word gives no strength. Sequences can lack the tags named with a protein. Blank lines part the entries; values can stand above or below the molecule they belong to.

The chains behind the UniProt entries cited, without tags or fusion partners.
UniProt Q9LN63: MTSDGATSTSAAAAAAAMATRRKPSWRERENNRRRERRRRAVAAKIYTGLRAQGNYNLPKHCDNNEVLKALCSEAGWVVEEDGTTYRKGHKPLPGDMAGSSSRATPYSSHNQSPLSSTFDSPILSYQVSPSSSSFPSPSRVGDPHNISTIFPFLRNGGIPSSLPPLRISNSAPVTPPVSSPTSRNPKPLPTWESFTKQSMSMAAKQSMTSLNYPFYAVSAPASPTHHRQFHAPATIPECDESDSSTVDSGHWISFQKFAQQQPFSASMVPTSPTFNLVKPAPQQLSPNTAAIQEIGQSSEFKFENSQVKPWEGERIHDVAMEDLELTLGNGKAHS

Key:
[1] = biological target: T1, BRASSINOSTEROIDS AT VASCULAR AND ORGANIZING CENTER (BRAVO), fluorescent fusion for FRET-FLIM (Arabidopsis thaliana) (UniProt Q6R053); assay: FRET or BRET; FRET-FLIM: donor fluorescence lifetime measured in nuclei of transiently expressing Nicotiana benthamiana leaf epidermal cells; fusion proteins tagged with mVenus or mCherry, induced with ß-estradiol; double-exponential fit of the intensity-weighted average lifetime
T1 sequence: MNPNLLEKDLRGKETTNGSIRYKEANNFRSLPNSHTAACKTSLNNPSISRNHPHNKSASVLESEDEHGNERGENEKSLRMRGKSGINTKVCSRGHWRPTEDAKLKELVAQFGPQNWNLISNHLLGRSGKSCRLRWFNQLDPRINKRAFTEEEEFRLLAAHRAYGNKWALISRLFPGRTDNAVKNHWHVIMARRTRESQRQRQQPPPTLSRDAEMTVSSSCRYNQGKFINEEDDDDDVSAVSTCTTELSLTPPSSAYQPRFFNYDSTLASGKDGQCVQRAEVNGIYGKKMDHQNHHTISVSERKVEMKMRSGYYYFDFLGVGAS

[2] = biological target: T2, WUSCHEL RELATED HOMEOBOX 5 (WOX5), fluorescent fusion for FRET-FLIM (Arabidopsis thaliana) (UniProt Q8H1D2); assay: as above
T2 sequence: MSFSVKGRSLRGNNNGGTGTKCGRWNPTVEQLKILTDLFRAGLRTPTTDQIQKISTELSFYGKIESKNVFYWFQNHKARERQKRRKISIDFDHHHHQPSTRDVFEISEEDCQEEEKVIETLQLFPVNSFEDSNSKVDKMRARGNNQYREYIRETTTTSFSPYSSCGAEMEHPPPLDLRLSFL

[3] = biological target: T3, BRAVO, yeast two-hybrid fusion (Arabidopsis thaliana) (UniProt Q6R053); assay: two-hybrid; GAL4-based yeast two-hybrid (Clontech), strain AH109; interaction assessed by growth on SD-LWH plates after 4 days at 30°C
T3 sequence: T1 sequence

[4] = biological target: T1, BRASSINOSTEROIDS AT VASCULAR AND ORGANIZING CENTER (BRAVO), fluorescent fusion for FRET-FLIM (Arabidopsis thaliana); assay: FRET or BRET; FRET-FLIM: donor fluorescence lifetime measured in nuclei of transiently expressing Nicotiana benthamiana leaf epidermal cells; fusion proteins tagged with mVenus or mCherry, induced with ß-estradiol; double-exponential fit of the intensity-weighted average lifetime; remark: listed apart in the source
[5] = biological target: T2, WUSCHEL RELATED HOMEOBOX 5 (WOX5), fluorescent fusion for FRET-FLIM (Arabidopsis thaliana); assay: as above; remark: listed apart in the source

binding [1]: binds | binding [2]: binds
Molecule: BRI1‐EMS‐SUPPRESSOR 1 (BES1), fluorescent fusion for FRET-FLIM (from UniProt Q9LN63 1-335)

binding [3]: binds
B1: TOPLESS (TPL), yeast two-hybrid fusion (protein, UniProt Q94AI7 1-1131)
chain: MSSLSRELVFLILQFLDEEKFKETVHKLEQESGFFFNMKYFEDEVHNGNWDEVEKYLSGFTKVDDNRYSMKIFFEIRKQKYLEALDKHDRPKAVDILVKDLKVFSTFNEELFKEITQLLTLENFRENEQLSKYGDTKSARAIMLVELKKLIEANPLFRDKLQFPTLRNSRLRTLINQSLNWQHQLCKNPRPNPDIKTLFVDHSCGPPNGARAPSPVNNPLLGGIPKAGGFPPLGAHGPFQPTASPVPTPLAGWMSSPSSVPHPAVSAGAIALGGPSIPAALKHPRTPPTNASLDYPSADSEHVSKRTRPMGISDEVNLGVNMLPMSFSGQAHGHSPAFKAPDDLPKTVARTLSQGSSPMSMDFHPIKQTLLLVGTNVGDIGLWEVGSRERLVQKTFKVWDLSKCSMPLQAALVKEPVVSVNRVIWSPDGSLFGVAYSRHIVQLYSYHGGEDMRQHLEIDAHVGGVNDISFSTPNKQLCVITCGDDKTIKVWDAATGVKRHTFEGHEAPVYSVCPHYKENIQFIFSTALDGKIKAWLYDNMGSRVDYDAPGRWCTTMAYSADGTRLFSCGTSKDGESFIVEWNESEGAVKRTYQGFHKRSLGVVQFDTTKNRYLAAGDDFSIKFWDMDAVQLLTAIDGDGGLQASPRIRFNKEGSLLAVSGNENVIKIMANSDGLRLLHTFENISSESSKPAINSIAAAAAAAATSAGHADRSANVVSIQGMNGDSRNMVDVKPVITEESNDKSKIWKLTEVSEPSQCRSLRLPENLRVAKISRLIFTNSGNAILALASNAIHLLWKWQRNERNATGKATASLPPQQWQPASGILMTNDVAETNPEEAVPCFALSKNDSYVMSASGGKISLFNMMTFKTMATFMPPPPAATFLAFHPQDNNIIAIGMDDSTIQIYNVRVDEVKSKLKGHSKRITGLAFSNVLNVLVSSGADAQLCVWNTDGWEKQRSKVLPLPQGRPNSAPSDTRVQFHQDQAHFLVVHETQLAIYETTKLECMKQWAVRESLAPITHATFSCDSQLVYASFMDATVCVFSSANLRLRCRVNPSAYLPASLSNSNVHPLVIAAHPQEPNMFAVGLSDGGVHIFEPLESEGKWGVAPPAENGSASGAPTAPSVGASASDQPQR

binding [4]: binds | binding [5]: binds
B2: TOPLESS (TPL), fluorescent fusion for FRET-FLIM (protein, UniProt Q94AI7 1-1131)
chain: B1 chain

binding [5]: binds
B3: BRASSINOSTEROIDS AT VASCULAR AND ORGANIZING CENTER (BRAVO), fluorescent fusion for FRET-FLIM (protein, UniProt Q6R053 1-323)
chain: T1 sequence

binding [4]: binds
B4: WUSCHEL RELATED HOMEOBOX 5 (WOX5), fluorescent fusion for FRET-FLIM (protein, UniProt Q8H1D2 1-182)
chain: T2 sequence

binding [3]: binds
B5: WOX5, yeast two-hybrid fusion (protein, UniProt Q8H1D2 1-182)
chain: T2 sequence
